# Primary screen of a compound library

Protein sequences, listed by entry. Tags and fused reporters are not part of them.
UniProt E9BF75, entry or part of it: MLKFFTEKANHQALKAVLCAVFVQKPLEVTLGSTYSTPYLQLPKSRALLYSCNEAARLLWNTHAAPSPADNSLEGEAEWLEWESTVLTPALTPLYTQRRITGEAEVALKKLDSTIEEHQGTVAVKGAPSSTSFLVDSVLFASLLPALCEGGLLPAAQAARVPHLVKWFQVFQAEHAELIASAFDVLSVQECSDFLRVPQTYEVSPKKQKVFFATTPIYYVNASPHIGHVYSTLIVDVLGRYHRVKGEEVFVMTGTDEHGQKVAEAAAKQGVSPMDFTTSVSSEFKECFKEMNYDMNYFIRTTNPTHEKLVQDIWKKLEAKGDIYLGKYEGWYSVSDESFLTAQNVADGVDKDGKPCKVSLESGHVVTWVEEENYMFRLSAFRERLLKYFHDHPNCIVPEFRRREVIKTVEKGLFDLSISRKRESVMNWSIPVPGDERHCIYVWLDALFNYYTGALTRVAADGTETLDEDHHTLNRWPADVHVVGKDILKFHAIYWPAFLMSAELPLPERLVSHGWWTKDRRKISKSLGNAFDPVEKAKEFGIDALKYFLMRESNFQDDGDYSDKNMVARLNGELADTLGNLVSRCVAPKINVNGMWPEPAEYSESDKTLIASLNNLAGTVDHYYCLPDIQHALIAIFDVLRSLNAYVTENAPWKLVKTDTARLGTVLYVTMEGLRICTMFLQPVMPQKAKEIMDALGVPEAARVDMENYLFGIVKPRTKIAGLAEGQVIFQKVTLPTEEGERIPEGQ

From ChEMBL document CHEMBL3988442, “University of Dundee, Small-Polar-MMV Screening Library” (2021).

All values are in %. The record does not define 0% and 100%; most values in the screen are far below 50% and negative numbers occur (in some assays of this library far below -100). The compounds are a random part of those screened.

A: 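Methionyl-tRNA synthetase (putative), Leishmania donovani (UniProt E9BF75). Primary screen of methionyl-tRNA synthetase; the read-out is not stated. The test concentration is not given. Values are per cent inhibition. Size under these conditions: about 68,000 compounds, about 24 of them at 50% or above in at least one test.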
B: 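Assay on Mycobacterium tuberculosis, filed only as a heat shock assay from Cornell; the read-out is not stated. The concentration is filed as 10 mM, unlikely as a test dose, so the dose is not known. The record gives no direction; compounds that gave an IC50 in retests scored well above the rest, so higher reads as stronger inhibition. About 69,000 compounds were tested under these conditions; 1.4% (about 930) showed 50% or more at least once.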

Result for COC(=O)CC1CCCCN1CC(=O)Nc1ccc(F)cc1Cl (stereo not shown) was A: 5.714%; B: -11.15%. CC1=N[C@@]2(CC[C@@H]3CN(C(=O)NCCc4ccccc4)C[C@@H]32)C(=O)N1 gave A: 4.667%. With COc1cccc(OCC(=O)NS(=O)(=O)c2cccnc2)c1 the screen gave A: 14.21%; B: -9.171%. CN(C)C(=O)COCC1CN(C2CCC2)Cc2ncn(C)c21 (stereo not shown) read A: 3.553%. [H][C@@]12CCN(S(=O)(=O)N(C)C)C[C@@]1([H])O[C@@H](c1ccnc(C)n1)C2 gave B: -3.033%. COCc1cc(N(Cc2ccsc2)C2CC2)n2ncnc2n1 read A: 14.29%; B: -34.68%. Cc1ccc(OCC(=O)NS(=O)(=O)c2cccnc2)cc1C read A: 0%; B: -1.822%.

With O=C(O)C(F)(F)F.[H][C@@]12CCN(c3cnccn3)C[C@]1([H])CN(C(=O)c1ccn(C)n1)C2 the screen gave B: -7.908%. COc1ccc2[nH]cc(C(=O)CNc3nc(C)cs3)c2c1.I read B: 4.496%. Cc1cc(N)n(-c2ccc3nnc(C)n3n2)n1 read A: 15.3%; B: -9.422%. Result for CCn1cc(CNc2ccc(F)c(F)c2)cn1 was A: 18.61%; B: 8.522%. For COc1ccc(C(=O)N2CC[C@@H]3[C@H](CC2)N(C)CCS3(=O)=O)cc1 the result was A: 5.155%. Result for COCCN1CCC2(CC1)CC(CC(N)=O)c1ccc(F)cc12 (stereo not shown) was A: 1.754%; B: -14.46%. With Cc1cccc(CN2C(=O)CC[C@@H]3[C@H]2CCN3C(=O)c2ccsc2)n1 the screen gave A: 13.65%.

O=C(Cn1ccc2ccc(Cl)cc21)/N=c1\[nH]nc(C2CCCO2)s1 (stereo not shown) read A: 3.927%; B: 0.07551%. Cc1nc(CN2CCCC(N(C)Cc3c(C)noc3C)C2)no1 (stereo not shown) gave A: 18.06%; B: 22.48%. With Cc1cc(C(=O)N2CCN(C)CC2)nn1CC(=O)NCc1cccs1.Cl the screen gave B: -25.29%. With CCCNC(=O)N1CCc2ccc(S(=O)(=O)N3CCCC3)cc2C1 the screen gave A: 13.23%; B: 15.8%. CN(Cc1cn2c(n1)CN(C(=O)C1CCCO1)CC2)Cc1ccco1 (stereo not shown) read A: 15.6%; B: 22.18%. Result for O=C(O)C(F)(F)F.[H][C@]12CCN(CC3CC3)C[C@@]1([H])OCCN(C(=O)c1ccco1)C2 was B: -6.108%. NCCn1nc(C2CCN(C(=O)Cc3ccccc3)C2)c2nccnc21 (stereo not shown) gave A: 33.01%; B: -5.122%.

Result for Cc1cnc(NCc2ccncc2)nc1-c1cnn(C)c1 was A: 0.2611%; B: -11.96%. For Cc1ccccc1S(=O)(=O)NC(=O)C1(c2ccccc2)CCC1 the result was A: 10.28%; B: 9.668%. With CCn1ncc2c1CCCC2NCc1cc(Cl)c(OC)c(OC)c1 (stereo not shown) the screen gave A: 12.68%; B: -7.168%. For CN(CCn1ccc2ccccc21)C(=O)Cc1n[nH]c(=O)[nH]1 the result was A: 9.946%; B: 11.29%.

For reference, 3 entries once more:

With CCn1cc(CNc2ccc(F)c(F)c2)cn1 the screen gave A: 18.61%; B: 8.522%.
With Cc1cc(N)n(-c2ccc3nnc(C)n3n2)n1 the screen gave A: 15.3%; B: -9.422%.
With COCCN1CCC2(CC1)CC(CC(N)=O)c1ccc(F)cc12 (stereo not shown) the screen gave A: 1.754%; B: -14.46%.